Test results as given in patent publication US20230330058A1, “SENOLYTIC COMPOUNDS AND COMPOSITIONS” (NUCHIDO LIMITED, priority 2020, published 2023).
For at least one compound, name, drawing or mass did not settle the structure.

Tested on: senescent Human Dermal Fibroblasts (HDFs) versus non-senescent ('young') HDFs
Experiment: Senescence-specific assay: co-culture of labelled senescent and non-senescent cells, automated counting before and after 72 h incubation
Assay type: cell-based
Details: used in isolation or combination (Example 2)
Procedure: We developed a senescence-specific assay, employing automated counting of differentially labelled senescent and non-senescent cells in co-culture, before and after 72h incubation with each molecule or molecule combination.
Human Dermal Fibroblasts (HDFs) expressing pSLIEW (Green), or mCherry (Red) are used in the assay. The cells expressing pSLIEW (Green) are subjected to 20 Gy X-irradiation to induce senescence.
The test molecule is added to the co-culture, and the number of green and red cells are counted before and after 72 h incubation. A selective senolytic would be expected to diminish the proportion of green-expressing senescent cells, while leaving the number of red-expressing young cells unchanged or increased due to replication during the incubation period.
The experiments were carried out in 96-well plates, and the cells were imaged using fluorescent microscopy. The images were analysed with ICY software for automated cell counting, and both numbers of labelled cells and their other visible characteristics such as size were recorded.

Compound: C[C@@H]1O[C@@H](OC[C@H]2O[C@@H](Oc3c(-c4ccc(O)c(O)c4)oc4cc(O)cc(O)c4c3=O)[C@H](O)[C@@H](O)[C@@H]2O)[C@H](O)[C@H](O)[C@H]1O [rutin, quercetin 3-O-rhamnozyl-(1→6)-glucoside]
- senolytic activity of naturally occurring derivatives of the active ingredients: show senolytic activity
